Experimental data: paper PMC5897371
These are yes or no findings as the source states them, for the method shown. In cells and extracts the contact can be indirect. Some results given as binding are weak or reduced against the parent protein; the word gives no strength.

Chains of the proteins cited; added tags and fusions are not shown. Lines headed by an entry give the natural chain unless they say otherwise; changes in a name come on top. A line that says so, or that is headed by a name, gives the form on record, which may keep a tag or linker.
UniProt Q62318: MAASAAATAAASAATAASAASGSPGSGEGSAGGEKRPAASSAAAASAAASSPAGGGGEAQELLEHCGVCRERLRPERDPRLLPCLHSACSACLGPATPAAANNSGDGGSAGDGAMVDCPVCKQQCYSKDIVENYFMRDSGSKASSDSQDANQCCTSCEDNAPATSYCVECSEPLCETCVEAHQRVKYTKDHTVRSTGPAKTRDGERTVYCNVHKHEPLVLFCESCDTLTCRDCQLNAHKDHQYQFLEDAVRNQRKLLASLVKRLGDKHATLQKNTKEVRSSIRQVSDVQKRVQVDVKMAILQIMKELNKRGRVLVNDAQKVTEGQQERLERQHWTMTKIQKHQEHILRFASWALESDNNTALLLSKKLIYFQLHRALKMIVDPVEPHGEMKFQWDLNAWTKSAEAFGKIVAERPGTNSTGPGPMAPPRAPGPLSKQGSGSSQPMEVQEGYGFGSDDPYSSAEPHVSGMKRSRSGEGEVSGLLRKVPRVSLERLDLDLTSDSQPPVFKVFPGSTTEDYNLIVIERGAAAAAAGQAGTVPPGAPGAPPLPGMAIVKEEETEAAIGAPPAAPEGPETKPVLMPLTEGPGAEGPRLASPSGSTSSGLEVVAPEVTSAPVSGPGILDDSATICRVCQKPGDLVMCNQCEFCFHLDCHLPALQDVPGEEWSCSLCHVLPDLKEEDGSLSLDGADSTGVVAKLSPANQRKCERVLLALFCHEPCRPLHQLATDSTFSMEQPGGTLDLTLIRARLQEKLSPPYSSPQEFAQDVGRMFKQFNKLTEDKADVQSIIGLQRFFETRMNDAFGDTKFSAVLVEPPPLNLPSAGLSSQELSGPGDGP
UniProt P42227: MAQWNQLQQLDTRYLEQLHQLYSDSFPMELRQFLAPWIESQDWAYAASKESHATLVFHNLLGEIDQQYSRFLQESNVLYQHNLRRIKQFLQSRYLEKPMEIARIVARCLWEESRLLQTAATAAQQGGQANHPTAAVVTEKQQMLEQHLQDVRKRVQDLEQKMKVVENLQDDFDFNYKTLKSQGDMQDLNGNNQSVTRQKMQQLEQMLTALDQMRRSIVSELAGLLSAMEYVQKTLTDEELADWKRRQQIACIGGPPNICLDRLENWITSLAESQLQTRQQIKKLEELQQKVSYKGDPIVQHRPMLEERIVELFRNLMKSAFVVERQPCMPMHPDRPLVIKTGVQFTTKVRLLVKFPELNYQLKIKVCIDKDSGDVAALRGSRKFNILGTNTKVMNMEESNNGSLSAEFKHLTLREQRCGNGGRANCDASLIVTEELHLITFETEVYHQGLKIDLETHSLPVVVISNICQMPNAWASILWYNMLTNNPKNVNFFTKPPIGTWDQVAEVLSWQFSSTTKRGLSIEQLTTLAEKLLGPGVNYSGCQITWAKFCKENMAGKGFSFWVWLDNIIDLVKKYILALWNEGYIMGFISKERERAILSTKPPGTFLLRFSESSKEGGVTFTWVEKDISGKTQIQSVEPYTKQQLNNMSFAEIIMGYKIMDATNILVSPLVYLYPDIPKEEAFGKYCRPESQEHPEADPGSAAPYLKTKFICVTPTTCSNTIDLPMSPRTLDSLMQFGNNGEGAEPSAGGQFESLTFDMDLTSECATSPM
RAR-related orphan receptor gamma (RORγt) (P51450-2, form named): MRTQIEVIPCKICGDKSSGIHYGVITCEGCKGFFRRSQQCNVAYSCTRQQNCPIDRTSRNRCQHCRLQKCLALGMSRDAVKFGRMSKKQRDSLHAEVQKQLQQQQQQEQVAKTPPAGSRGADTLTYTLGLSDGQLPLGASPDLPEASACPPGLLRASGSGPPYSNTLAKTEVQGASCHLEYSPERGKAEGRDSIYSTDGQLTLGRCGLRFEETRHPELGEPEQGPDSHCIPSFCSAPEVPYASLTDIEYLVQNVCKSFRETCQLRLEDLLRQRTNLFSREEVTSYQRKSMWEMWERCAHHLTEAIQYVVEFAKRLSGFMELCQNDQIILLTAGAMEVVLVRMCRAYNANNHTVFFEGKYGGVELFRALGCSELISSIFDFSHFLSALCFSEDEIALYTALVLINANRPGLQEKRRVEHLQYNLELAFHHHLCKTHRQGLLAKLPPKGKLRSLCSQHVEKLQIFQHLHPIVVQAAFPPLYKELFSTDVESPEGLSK

Molecular target: Tripartite motif containing 28 (TRIM28) (mouse (endogenous in Th17 cells)) (UniProt Q62318)
Test: co-IP; endogenous proteins; Th17 cells (2×10^7, TGF-β and IL-6, 3 days) lysed in 25 mM Tris pH 7.4, 150 mM NaCl, 1 mM EDTA, 1% NP-40, 5% glycerol, sonicated; anti-TRIM28 antibody or control IgG, 4 °C overnight, Dynabeads protein G; immunoblot for RORγt and STAT3

With “signal transducer and activator of transcription 3 (STAT3) (from UniProt P42227 1-770)” the binding was “binds”.
With “RAR-related orphan receptor gamma (RORγt) (from UniProt P51450-2 1-495)” the binding was “binds”.
